The whole screen tested about 31,000 sequences, of which about 1,400 (4.5%) were called active.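 How the source made its calls: active means median seed-adjusted z-score above 1 or below -1; inactive means the rest.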 Some of the results follow.
Assay: Novel Modifiers of Survival Motor Neuron (SMN) Protein: Gene Identification via Genome-wide siRNA Screen;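 further: luminescence tracks full-length SMN protein made from the SMN2 reporter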
Details: HEK293T SMN2-luciferase reporter, siRNA knockdown, 72 h; actives lie on both sides
Method in brief: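 HEK293T cells stably expressing an SMN2 splicing/cDNA-luciferase reporter were reverse-transfected with a druggable-genome siRNA library and read by luminescence at 72 hours; hits defined by MAD score above 1.0 or below -1.0.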

| Sequence | median seed-adjusted z-score |
| --- | --- |
| GCAAAGGGAUCGGAAGAGATT against HSD11B1 | inactive: -0.174 |
| ACAAUUUCGUGCAUCGAGATT against CSK | inactive: 0.993 |
| GCCUUGUGGAUGAUCGUGUTT against GRIK4 | inactive: 0.249 |
| CCCUGGACGCUGAUGAGUUTT against CAPS | active: -1.25 |
| GAGGUUCCCUAAUUUCCAATT against HIF1AN | inactive: -0.0315 |
| UCAUAAUUAUCUCACCAGATT against MEOX2 | active: 1.36 |
| GGGUAUAAAACAUUAUGAATT against ZNF510 | inactive: 0.28 |
| GGGACAACGUGAGAACAAUTT against B4GALT5 | inactive: 0.104 |
| GAUGUUCCCUAUAUGCAAATT against CLDN10 | inactive: 0.0399 |
| GCCCAUCAGGGUUCUCUUATT against CD82 | inactive: 0.102 |
| GGCUUUGCUUAAGUUCAAATT against LPCAT4 | inactive: 0.338 |
| GAAUUAUCCCAACCGAUAUTT against DDX58 | inactive: -0.113 |
| GAGAUUAUCCAGUCUCUAATT against NAT10 | inactive: 0 |
| GAAUUCAUAUAGCAUCAAATT against UBE2V1 | inactive: 0.745 |
| GAGUUACUGCCGAUAAUGATT against CBR3 | inactive: 0.057 |
| GGGUGUUACCUGCAAAAGATT against CCKAR | inactive: 0.376 |
| GGAGCUCACUUACCAGGAATT against MAPK11 | inactive: 0.0663 |
| UGAAGCCUCUGUGACCAUATT against CREB3L3 | inactive: -0.076 |
| GCUGGUACAUUUUAUGAAATT against ZNF234 | inactive: 0.0667 |
| GAGUUUCAAGUAUAACUCGTT against GLI4 | inactive: 0.0798 |
| UGACGUGCACAGGAAGAAATT against OXCT2 | inactive: -0.449 |
| CAAUUCUUGUCAUUUGAAATT against SLC25A19 | inactive: -0.104 |
| CAGCACAAGUGCAAAAUGATT against FZD10 | inactive: -0.226 |
| GUGUUGAUGUGGGUAUUUATT against RTN4 | inactive: -0.0191 |
| GGCUCUUUGAAUUAUCACATT against WDR64 | inactive: -0.25 |
| CAGCAGAAAUAGGAGCUGATT against NPL | inactive: -0.0324 |
| GCUCUAACCUUACUAUACATT against ZNF253 | inactive: 0.0237 |

| Sequence | median seed-adjusted z-score |
| --- | --- |
| CGAUCAAUCAAAUUCGUCATT against EIF4G2 | inactive: -0.386 |
| AGAACUUGAUGCUCCGAGATT against ITGA7 | inactive: 0.13 |
| CGUACUGUCUGUGCAACCATT against ING1 | inactive: 0.121 |
| GAUUCAUAGUGACCACUUATT against MUTED | inactive: 0.00377 |
| CAGUCCCUCUAUCACAUAUTT against ERH | active: -1.25 |
| CGUGUUCUACCGGGACGAATT against FAM84B | inactive: -0.431 |
| CUACUUCCUUUAUCCCGAUTT against BDH1 | inactive: -0.0253 |
| GCCUUCAACUGAUUAGACATT against PYCR1 | inactive: -0.171 |
| GCAACAGAACUUUAAAACATT against NIT1 | inactive: -0.528 |
| GAAUGAUAGUCAGACGUGUTT against BPNT1 | inactive: 0.0844 |
| GGGAUGUUCUUAGAAGUUUTT against BIK | inactive: 0.0492 |
| AGAUCCUGUGGAUUAGAAATT against NEU4 | inactive: -0.152 |
| CGUGAUCCUGUACCAUUAATT against EXOSC9 | inactive: -0.00796 |
| GAAUAGACCUGAAGACAAATT against CFLAR | inactive: -0.413 |
| GCAAGUGUAUAAUAUGGUATT against STARD6 | inactive: 0.0605 |
| GCUCUGGUCUUAGAGUACATT against ZFP82 | inactive: 0.57 |
| GCAGAAAAGAUAGAGUACATT against SMARCE1 | inactive: 0 |
| GAACCUUGGUUGUUAUCCATT against MAGI3 | inactive: 0.202 |
| CGAUAUCUUCACCACAUUATT against KCNJ6 | active: -1.6 |
| GAACUUUGAUAUGUGGAAATT against COX17 | inactive: 0.772 |
| GCCUUACAGAUGUAGUAAATT against ZNF528 | inactive: -0.0746 |
| GGAAGACCUUACACGGUUATT against EIF3E | inactive: 0.549 |
| CGAGAACAAAUGAUGAACATT against DLG3 | inactive: -0.317 |
| GCCUCAUACCAUUCCAUAUTT against MEP1B | active: 1.46 |
| GGACUUGCCUUAACCGCUATT against MARS2 | inactive: -0.00523 |
| GACAUUGUCUGUUACCUGUTT against DGKB | inactive: 0.325 |

A run of entries from further up, as a working copy:

| Sequence | median seed-adjusted z-score |
| --- | --- |
| UGACGUGCACAGGAAGAAATT against OXCT2 | inactive: -0.449 |
| CAAUUCUUGUCAUUUGAAATT against SLC25A19 | inactive: -0.104 |
| CAGCACAAGUGCAAAAUGATT against FZD10 | inactive: -0.226 |
| GUGUUGAUGUGGGUAUUUATT against RTN4 | inactive: -0.0191 |
| GGCUCUUUGAAUUAUCACATT against WDR64 | inactive: -0.25 |
| CAGCAGAAAUAGGAGCUGATT against NPL | inactive: -0.0324 |
| GCUCUAACCUUACUAUACATT against ZNF253 | inactive: 0.0237 |
| CGAUCAAUCAAAUUCGUCATT against EIF4G2 | inactive: -0.386 |
| AGAACUUGAUGCUCCGAGATT against ITGA7 | inactive: 0.13 |
| CGUACUGUCUGUGCAACCATT against ING1 | inactive: 0.121 |

From PubChem BioAssay AID1347426 (Functional Genomics Laboratory (NCATS/FGL), 2020)
